Source: publication PMC12448318

By UniProt entry, the sequences of proteins in these tests, tags left out.
UniProt Q18246: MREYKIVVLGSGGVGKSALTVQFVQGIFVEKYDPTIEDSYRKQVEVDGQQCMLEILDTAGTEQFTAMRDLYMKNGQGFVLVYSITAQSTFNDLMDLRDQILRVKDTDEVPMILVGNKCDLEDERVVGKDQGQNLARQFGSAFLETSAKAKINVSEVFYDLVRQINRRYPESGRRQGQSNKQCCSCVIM

Target: TIAM-1::mGFP (C. elegans) (UniProt O01847)
Test: FRET or BRET; FRET-FLIM in vivo: TIAM-1::mGFP (donor) with RAP-1::mCherry or free mCherry (acceptor) in cholinergic neurons, dorsal cord of L4 animals, 20°C; mean lifetime of mGFP

RAP-1::mCherry (from UniProt Q18246 1-188)
binding: binds

No constants are given. Whether binding was seen depends on the method and setting. In cells and extracts the contact can be indirect. A result given as binding can be weak or reduced; the word gives no strength.
